Results from article PMC12520695.
These are yes or no findings as the source states them, for the method shown. In cells and extracts the contact can be indirect. Here binding means that the protein was enriched with, or labelled near, the bait; the list need not be complete. Values belong to the molecule of their own block, whether it stands above or below them.

The chains behind the UniProt entries cited, without tags or fusion partners. Residues count along the entry.
UniProt Q9UNE7: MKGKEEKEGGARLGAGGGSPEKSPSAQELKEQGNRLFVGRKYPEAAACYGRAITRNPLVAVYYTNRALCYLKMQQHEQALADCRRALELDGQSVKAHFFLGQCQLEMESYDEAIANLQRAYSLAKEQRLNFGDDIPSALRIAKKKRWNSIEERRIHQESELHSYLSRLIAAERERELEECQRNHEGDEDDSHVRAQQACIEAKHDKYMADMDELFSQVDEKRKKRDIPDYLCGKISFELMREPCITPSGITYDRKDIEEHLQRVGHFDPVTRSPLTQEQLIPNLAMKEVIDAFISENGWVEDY
UniProt P11021, residues 19-654: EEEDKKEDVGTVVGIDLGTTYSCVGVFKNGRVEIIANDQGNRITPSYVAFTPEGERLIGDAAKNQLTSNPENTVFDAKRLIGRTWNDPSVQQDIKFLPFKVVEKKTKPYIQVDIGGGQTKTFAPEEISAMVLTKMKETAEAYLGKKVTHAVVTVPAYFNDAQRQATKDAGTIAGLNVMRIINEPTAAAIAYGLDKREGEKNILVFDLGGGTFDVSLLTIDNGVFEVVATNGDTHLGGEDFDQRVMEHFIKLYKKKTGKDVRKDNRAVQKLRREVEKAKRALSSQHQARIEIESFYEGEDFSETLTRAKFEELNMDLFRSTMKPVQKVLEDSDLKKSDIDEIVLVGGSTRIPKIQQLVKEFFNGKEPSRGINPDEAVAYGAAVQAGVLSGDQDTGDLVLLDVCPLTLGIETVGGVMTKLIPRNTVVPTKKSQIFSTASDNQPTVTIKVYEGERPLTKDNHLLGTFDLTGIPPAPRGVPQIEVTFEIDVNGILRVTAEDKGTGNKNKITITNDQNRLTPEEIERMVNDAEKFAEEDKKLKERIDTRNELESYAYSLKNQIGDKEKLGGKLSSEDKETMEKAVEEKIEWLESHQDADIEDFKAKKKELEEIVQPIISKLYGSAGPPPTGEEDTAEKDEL

Key:
[1] = target: T1, MLF2-SFB (stably expressed in U2OS) (UniProt Q15773); experiment: affinity purification with mass spectrometry; tandem affinity purification (TAP-MS): U2OS cells stably expressing MLF2-SFB lysed in NETN buffer (100 mM NaCl, 20 mM Tris-Cl pH 8.0, 0.5 mM EDTA, 0.5% NP-40); streptavidin beads, biotin elution, S-protein beads; SDS-PAGE and MS
T1 sequence: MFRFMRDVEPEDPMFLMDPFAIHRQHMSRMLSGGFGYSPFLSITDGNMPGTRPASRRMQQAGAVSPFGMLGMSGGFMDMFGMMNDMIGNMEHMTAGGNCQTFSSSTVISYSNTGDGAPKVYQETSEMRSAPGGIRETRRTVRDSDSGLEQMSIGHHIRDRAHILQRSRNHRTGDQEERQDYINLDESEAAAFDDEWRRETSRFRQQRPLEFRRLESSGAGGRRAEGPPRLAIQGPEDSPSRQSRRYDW

[2] = target: STUB1-SFB (stably expressed in HEK293T) (UniProt Q9UNE7); experiment: affinity purification with mass spectrometry; HEK293T cells stably expressing STUB1-SFB lysed in NETN buffer (100 mM NaCl, 20 mM Tris-Cl pH 8.0, 0.5 mM EDTA, 0.5% NP-40); streptavidin beads overnight at 4°C, biotin elution, S-protein beads; SDS-PAGE and MS

- binding [1]: binds
Molecule: STUB1, endogenous (from UniProt Q9UNE7 1-303) (enzyme)

- binding [1]: binds
Molecule: binding immunoglobulin protein (BiP), endogenous (from UniProt P11021 19-654)

- binding [2]: binds
B1: myeloid leukemia factor 2 (MLF2), endogenous (protein, UniProt Q15773 1-248)
chain: T1 sequence

- binding [2]: binds
B2: CCDC38, endogenous (protein, UniProt Q502W7 1-563)
chain: MSSNLLPTLNSGGKVKDGSTKEDRPYKIFFRDLFLVKENEMAAKETEKFMNRNMKVYQKTTFSSRMKSHSYLSQLAFYPKRSGRSFEKFGPGPAPIPRLIEGSDTKRTVHEFINDQRDRFLLEYALSTKRNTIKKFEKDIAMRERQLKKAEKKLQDDALAFEEFLRENDQRSVDALKMAAQETINKLQMTAELKKASMEVQAVKSEIAKTEFLLREYMKYGFFLLQMSPKHWQIQQALKRAQASKSKANIILPKILAKLSLHSSNKEGILEESGRTAVLSEDASQGRDSQGKPSRSLTRTPEKKKSNLAESFGSEDSLEFLLDDEMDVDLEPALYFKEPEELLQVLRELEEQNLTLFQYSQDVDENLEEVNKREKVIQDKTNSNIEFLLEQEKMLKANCVREEEKAAELQLKSKLFSFGEFNSDAQEILIDSLSKKITQVYKVCIGDAEDDGLNPIQKLVKVESRLVELCDLIESIPKENVEAIERMKQKEWRQKFRDEKMKEKQRHQQERLKAALEKAVAQPKKKLGRRLVFHSKPPSGNKQQLPLVNETKTKSQEEEYFFT
